Test results from the supplement of paper PMC10849652.
The list shows a part of the results.

Sequences of proteins named here, by UniProt entry; tags and fusion partners are left off. A change or cut given only in a name is not applied to a line headed by its entry.
UniProt Q8TD16, whole entry, looked up: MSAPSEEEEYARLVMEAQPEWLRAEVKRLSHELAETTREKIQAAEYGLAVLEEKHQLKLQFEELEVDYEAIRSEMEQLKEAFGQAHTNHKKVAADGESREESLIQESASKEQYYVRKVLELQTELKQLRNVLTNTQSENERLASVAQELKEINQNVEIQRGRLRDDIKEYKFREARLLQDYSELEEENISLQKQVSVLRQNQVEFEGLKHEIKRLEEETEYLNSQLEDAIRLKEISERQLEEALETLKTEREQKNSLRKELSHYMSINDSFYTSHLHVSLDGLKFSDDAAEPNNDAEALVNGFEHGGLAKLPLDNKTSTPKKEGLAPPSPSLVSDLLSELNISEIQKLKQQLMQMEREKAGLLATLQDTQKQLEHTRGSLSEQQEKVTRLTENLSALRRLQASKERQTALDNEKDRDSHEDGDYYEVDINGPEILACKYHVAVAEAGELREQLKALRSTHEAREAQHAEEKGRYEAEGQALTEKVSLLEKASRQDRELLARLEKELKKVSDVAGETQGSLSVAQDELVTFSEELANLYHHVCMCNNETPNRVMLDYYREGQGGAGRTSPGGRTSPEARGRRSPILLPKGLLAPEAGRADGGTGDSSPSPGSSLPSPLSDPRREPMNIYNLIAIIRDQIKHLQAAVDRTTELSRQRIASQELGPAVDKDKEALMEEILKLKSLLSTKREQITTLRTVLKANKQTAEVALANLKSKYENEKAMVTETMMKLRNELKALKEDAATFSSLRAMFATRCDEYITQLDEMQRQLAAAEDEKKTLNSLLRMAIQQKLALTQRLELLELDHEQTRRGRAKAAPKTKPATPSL
UniProt Q13867: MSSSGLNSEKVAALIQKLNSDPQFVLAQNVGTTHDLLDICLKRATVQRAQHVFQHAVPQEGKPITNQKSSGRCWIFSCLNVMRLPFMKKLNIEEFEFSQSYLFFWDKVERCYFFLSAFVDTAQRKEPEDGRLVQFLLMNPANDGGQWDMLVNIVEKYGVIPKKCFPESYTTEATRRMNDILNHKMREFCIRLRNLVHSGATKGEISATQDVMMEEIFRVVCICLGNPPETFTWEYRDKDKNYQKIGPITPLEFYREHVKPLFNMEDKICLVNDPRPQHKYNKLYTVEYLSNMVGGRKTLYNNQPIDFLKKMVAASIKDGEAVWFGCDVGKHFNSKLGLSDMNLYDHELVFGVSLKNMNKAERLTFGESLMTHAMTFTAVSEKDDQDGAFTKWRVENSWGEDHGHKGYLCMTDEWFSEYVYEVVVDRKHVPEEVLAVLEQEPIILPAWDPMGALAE
UniProt Q96GX2: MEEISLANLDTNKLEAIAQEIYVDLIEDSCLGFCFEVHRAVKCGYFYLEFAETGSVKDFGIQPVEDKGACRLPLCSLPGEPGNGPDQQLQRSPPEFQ
UniProt Q9H3K6: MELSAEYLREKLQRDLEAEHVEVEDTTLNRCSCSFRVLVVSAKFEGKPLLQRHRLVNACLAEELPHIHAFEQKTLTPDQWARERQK
UniProt O14867: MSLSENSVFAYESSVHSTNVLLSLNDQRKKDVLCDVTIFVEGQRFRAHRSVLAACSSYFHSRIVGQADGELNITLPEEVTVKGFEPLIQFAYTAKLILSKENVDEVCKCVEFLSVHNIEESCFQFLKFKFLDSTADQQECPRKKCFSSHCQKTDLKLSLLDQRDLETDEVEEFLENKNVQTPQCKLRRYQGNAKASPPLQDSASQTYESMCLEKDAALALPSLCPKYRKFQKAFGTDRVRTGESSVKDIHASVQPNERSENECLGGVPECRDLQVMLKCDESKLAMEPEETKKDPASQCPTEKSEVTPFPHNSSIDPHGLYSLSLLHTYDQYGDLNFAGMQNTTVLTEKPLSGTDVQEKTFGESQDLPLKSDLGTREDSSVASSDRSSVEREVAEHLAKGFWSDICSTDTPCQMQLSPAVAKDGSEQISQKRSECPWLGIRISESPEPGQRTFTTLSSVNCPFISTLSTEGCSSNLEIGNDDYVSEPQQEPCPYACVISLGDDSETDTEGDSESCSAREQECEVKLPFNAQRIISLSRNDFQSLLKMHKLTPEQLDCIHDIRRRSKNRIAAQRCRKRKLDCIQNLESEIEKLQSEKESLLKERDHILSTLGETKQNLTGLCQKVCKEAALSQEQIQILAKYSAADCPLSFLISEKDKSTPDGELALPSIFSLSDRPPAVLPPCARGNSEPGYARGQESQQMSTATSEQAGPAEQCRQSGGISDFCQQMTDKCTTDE
UniProt Q99933: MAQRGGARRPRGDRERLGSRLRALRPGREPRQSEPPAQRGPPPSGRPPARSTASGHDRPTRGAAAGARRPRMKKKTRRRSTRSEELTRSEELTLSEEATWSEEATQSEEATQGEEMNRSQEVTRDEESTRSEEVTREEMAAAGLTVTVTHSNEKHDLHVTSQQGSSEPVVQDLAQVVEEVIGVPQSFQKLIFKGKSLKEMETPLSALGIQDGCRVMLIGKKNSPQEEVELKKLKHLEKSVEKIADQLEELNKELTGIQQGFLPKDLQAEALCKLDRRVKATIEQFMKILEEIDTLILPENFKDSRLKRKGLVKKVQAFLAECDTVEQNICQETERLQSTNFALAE
UniProt Q92934: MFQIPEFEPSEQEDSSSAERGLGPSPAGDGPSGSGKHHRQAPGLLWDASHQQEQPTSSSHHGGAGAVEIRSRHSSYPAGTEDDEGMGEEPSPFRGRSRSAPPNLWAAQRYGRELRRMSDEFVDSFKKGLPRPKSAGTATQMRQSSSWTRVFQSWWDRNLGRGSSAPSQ
UniProt Q8TDH9: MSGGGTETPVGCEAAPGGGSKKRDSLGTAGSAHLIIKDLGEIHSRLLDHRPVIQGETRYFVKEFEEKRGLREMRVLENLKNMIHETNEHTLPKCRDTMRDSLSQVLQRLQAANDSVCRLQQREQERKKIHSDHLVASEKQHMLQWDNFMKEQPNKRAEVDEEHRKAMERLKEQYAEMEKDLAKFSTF
UniProt Q9NW68: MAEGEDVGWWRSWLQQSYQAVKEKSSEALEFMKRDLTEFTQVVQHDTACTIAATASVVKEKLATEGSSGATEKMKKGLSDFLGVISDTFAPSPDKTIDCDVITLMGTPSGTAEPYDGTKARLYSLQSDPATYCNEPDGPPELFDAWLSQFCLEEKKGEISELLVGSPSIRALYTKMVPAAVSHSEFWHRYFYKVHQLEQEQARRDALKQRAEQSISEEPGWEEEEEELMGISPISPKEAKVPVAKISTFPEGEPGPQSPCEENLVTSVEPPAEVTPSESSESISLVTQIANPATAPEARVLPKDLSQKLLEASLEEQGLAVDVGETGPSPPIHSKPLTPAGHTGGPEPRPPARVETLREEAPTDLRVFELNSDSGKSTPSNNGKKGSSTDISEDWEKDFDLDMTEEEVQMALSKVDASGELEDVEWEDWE
UniProt Q92843: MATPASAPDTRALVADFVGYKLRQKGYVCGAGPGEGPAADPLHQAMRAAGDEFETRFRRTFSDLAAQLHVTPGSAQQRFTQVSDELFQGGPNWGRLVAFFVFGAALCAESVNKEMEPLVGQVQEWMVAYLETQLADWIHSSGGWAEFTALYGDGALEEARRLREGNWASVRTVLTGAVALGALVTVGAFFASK
UniProt O75531: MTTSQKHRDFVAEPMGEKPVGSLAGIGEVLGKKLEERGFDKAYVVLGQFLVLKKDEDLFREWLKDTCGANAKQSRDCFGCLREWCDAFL
UniProt O15382: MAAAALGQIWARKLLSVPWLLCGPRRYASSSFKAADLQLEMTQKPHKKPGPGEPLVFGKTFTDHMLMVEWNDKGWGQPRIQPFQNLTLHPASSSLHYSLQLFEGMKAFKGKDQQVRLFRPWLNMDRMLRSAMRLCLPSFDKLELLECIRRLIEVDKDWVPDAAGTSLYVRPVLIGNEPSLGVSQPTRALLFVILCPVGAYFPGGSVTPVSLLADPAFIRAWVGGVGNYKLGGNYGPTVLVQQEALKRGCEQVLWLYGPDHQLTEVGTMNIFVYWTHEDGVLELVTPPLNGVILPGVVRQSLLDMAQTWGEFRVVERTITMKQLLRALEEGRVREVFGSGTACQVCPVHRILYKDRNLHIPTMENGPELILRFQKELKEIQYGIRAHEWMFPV
UniProt P30043: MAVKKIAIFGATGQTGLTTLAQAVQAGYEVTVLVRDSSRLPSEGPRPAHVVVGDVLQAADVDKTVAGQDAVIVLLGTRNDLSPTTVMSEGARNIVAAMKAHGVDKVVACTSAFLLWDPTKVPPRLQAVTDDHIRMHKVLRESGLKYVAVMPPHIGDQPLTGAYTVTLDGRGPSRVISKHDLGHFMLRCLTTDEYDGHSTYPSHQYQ
UniProt P25311: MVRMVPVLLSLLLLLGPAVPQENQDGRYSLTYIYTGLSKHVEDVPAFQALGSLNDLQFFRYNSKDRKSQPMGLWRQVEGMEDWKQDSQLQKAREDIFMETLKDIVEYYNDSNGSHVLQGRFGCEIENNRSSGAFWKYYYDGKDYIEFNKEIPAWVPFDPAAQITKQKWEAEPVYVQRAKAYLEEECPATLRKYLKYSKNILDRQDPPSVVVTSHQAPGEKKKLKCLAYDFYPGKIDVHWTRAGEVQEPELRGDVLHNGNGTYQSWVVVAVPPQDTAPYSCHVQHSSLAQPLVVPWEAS
UniProt O14965: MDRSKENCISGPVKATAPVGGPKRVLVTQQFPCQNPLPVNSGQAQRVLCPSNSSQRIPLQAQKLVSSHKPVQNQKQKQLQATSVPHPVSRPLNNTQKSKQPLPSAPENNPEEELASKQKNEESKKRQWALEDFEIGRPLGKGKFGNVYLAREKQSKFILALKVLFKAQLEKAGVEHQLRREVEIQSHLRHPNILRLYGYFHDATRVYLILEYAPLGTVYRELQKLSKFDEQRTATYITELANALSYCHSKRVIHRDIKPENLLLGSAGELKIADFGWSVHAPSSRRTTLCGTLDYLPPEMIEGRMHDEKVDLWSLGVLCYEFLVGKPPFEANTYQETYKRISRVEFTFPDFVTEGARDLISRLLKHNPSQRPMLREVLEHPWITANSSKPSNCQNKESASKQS

Experiments:
Experiment in all cases: log2 fold change, soluble protein after heating vs DMSO (PISA); higher = thermal stabilisation; K562 cells, 10 uM, 30 min; active = over 0.2 and 3.5 SD of the protein, either way, in both replicates (recomputed)
bafetinib = compound: Cc1ccc(NC(=O)c2ccc(CN3CC[C@H](N(C)C)C3)c(C(F)(F)F)c2)cc1Nc1nccc(-c2cncnc2)n1 [bafetinib]
How it was run: (§1)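 K562 cells at 2×10^6 cells/mL were given 10 μM compound for 30 min. Aliquots then went through 3 min of heating across 48°C-58°C, were pooled, and were extracted in PBS with 0.5% NP-40 at 4°C, and the supernatant after 21,000xg for 90 min was quantified by TMTpro 16plex LC-MS/MS with channel sums equalised. Thermal stability relative to control samples, from duplicates, is given as log2 fold change.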

[1] = compound: Cc1cccc(CC(=O)N2CCc3c2ccc(-c2cn(C)c4ncnc(N)c24)c3F)n1
How it was run: as §1

nilotinib = compound: Cc1cn(-c2cc(NC(=O)c3ccc(C)c(Nc4nccc(-c5cccnc5)n4)c3)cc(C(F)(F)F)c2)cn1 [nilotinib]
How it was run: as §1

[2] = compound: Cc1nc(Nc2n[nH]c3c2CN(C(=O)N[C@H](CN(C)C)c2ccccc2)C3(C)C)c2sccc2n1
How it was run: as §1

dasatinib = compound: Cc1nc(Nc2ncc(C(=O)Nc3c(C)cccc3Cl)s2)cc(N2CCN(CCO)CC2)n1 [dasatinib]
How it was run: as §1

[3] = compound: Cc1ncc(-c2ccnc(Nc3ccc(S(C)(=O)=O)cc3)n2)n1C(C)C
How it was run: as §1

[4] = compound: Cn1cc(-c2ccc3c(c2)CCN3C(=O)Cc2cccc(C(F)(F)F)c2)c2c(N)ncnc21
How it was run: as §1

[5] = compound: Cn1cc(-c2ccc3nnc(C(F)(F)c4ccc5ncccc5c4)n3n2)cn1
How it was run: as §1

tipifarnib = compound: Cn1cncc1[C@@](N)(c1ccc(Cl)cc1)c1ccc2c(c1)c(-c1cccc(Cl)c1)cc(=O)n2C [tipifarnib]
How it was run: as §1

mubritinib = compound: FC(F)(F)c1ccc(/C=C/c2nc(COc3ccc(CCCCn4ccnn4)cc3)co2)cc1 [mubritinib]
How it was run: as §1

[6] = compound: NC(=O)Nc1cc(-c2cccc(F)c2)sc1C(=O)N[C@H]1CCCNC1
How it was run: as §1

[7] = compound: NC(=O)c1cnc(N[C@@H]2CCCC[C@@H]2N)nc1Nc1cccc(-n2nccn2)c1
How it was run: as §1

[8] = compound: NC1(c2ccc(-c3nc4ccn5c(=O)[nH]nc5c4cc3-c3ccccc3)cc2)CCC1
How it was run: as §1

[9] = compound: NCC(=O)Nc1ccc(-n2nc(C(F)(F)F)cc2-c2ccc3c(ccc4ccccc43)c2)cc1
How it was run: as §1

entinostat = compound: Nc1ccccc1NC(=O)c1ccc(CNC(=O)OCc2cccnc2)cc1 [entinostat]
How it was run: as §1

vorinostat = compound: O=C(CCCCCCC(=O)Nc1ccccc1)NO [vorinostat]
How it was run: as §1

citarinostat = compound: O=C(CCCCCCNC(=O)c1cnc(N(c2ccccc2)c2ccccc2Cl)nc1)NO [citarinostat]
How it was run: as §1

silmitasertib = compound: O=C(O)c1ccc2c(c1)nc(Nc1cccc(Cl)c1)c1ccncc12 [silmitasertib]
How it was run: as §1

[10] = compound: O=C1NC(=O)C(c2cnc3ccccn23)=C1c1cn2c3c(cc(F)cc13)CN(C(=O)N1CCCCC1)CC2
How it was run: as §1

[11] = compound: c1cc(OCCN2CCCCC2)cc(-c2n[nH]c3ccc(-c4nnc[nH]4)cc23)c1
How it was run: as §1

Row | Target | log2 fold change (bafetinib) | log2 fold change [1] | log2 fold change (nilotinib) | log2 fold change [2] | log2 fold change (dasatinib) | log2 fold change [3] | log2 fold change [4] | log2 fold change [5] | log2 fold change (tipifarnib) | log2 fold change (mubritinib) | log2 fold change [6] | log2 fold change [7] | log2 fold change [8] | log2 fold change [9] | log2 fold change (entinostat) | log2 fold change (vorinostat) | log2 fold change (citarinostat) | log2 fold change (silmitasertib) | log2 fold change [10] | log2 fold change [11]
1 | BICD2 isoform 2 (UniProt Q8TD16) | inactive: -0.037 | inactive: -0.005 | inactive: -0.021 | inactive: -0.07 | inactive: -0.187 | inactive: 0.041 | inactive: 0.004 | inactive: 0.011 | inactive: -0.015 | inactive: 0.009 | inactive: -0.078 | inactive: -0.056 | inactive: -0.121 | inactive: -0.095 | inactive: 0.054 | inactive: 0.043 | inactive: 0.006 | inactive: 0.033 | inactive: 0.012 | inactive: -0.03
2 | BLMH (UniProt Q13867) | inactive: 0.047 | inactive: 0.005 | inactive: 0.09 | inactive: -0.067 | inactive: 0.018 | inactive: 0.049 | inactive: -0.012 | inactive: -0.023 | inactive: 0.084 | inactive: -0.019 | inactive: 0.091 | inactive: 0.063 | inactive: 0.018 | inactive: 0.028 | inactive: -0.002 | inactive: 0.034 | inactive: 0.03 | inactive: -0.014 | inactive: 0.092 | inactive: 0.369
3 | ATXN7L3B (UniProt Q96GX2) | inactive: 0.017 | inactive: -0.044 | inactive: 0.025 | inactive: 0.029 | inactive: 0.029 | inactive: -0.044 | inactive: 0.12 | inactive: 0.046 | inactive: 0.08 | inactive: 0.042 | inactive: 0.008 | inactive: -0.002 | inactive: 0.018 | inactive: -0.016 | inactive: -0.007 | inactive: 0.008 | inactive: 0.036 | inactive: 0.013 | inactive: -0.168 | inactive: -0.014
4 | BOLA2 (UniProt Q9H3K6) | inactive: -0.026 | inactive: 0.051 | inactive: -0.027 | inactive: -0.029 | inactive: -0.037 | inactive: 0.017 | inactive: 0.061 | inactive: 0.079 | inactive: -0.162 | inactive: 0.027 | inactive: -0.007 | inactive: -0.05 | inactive: -0.05 | inactive: -0.012 | inactive: 0.004 | inactive: -0.005 | inactive: 0.037 | inactive: 0.007 | inactive: -0.119 | inactive: 0.009
5 | BNIP2 (UniProt J3KN59) | inactive: -0.232 | inactive: 0.027 | inactive: -0.006 | inactive: -0.004 | inactive: -0.005 | inactive: 0.022 | inactive: 0.017 | inactive: 0.001 | inactive: 0.038 | inactive: 0.063 | inactive: 0.006 | inactive: -0.015 | inactive: -0.04 | inactive: -0.054 | inactive: 0.006 | inactive: 0 | inactive: 0.073 | inactive: -0.045 | inactive: -0.165 | inactive: -0.11
6 | BACH1 (UniProt O14867) | inactive: -0.045 | inactive: -0.07 | inactive: -0.002 | inactive: 0 | inactive: 0.034 | inactive: -0.009 | inactive: 0.005 | inactive: -0.075 | inactive: 0.016 | inactive: 0.022 | inactive: 0.022 | inactive: -0.006 | inactive: 0.013 | inactive: 0 | inactive: -0.024 | inactive: -0.066 | inactive: -0.041 | inactive: -0.017 | inactive: 0.019 | inactive: -0.033
7 | BAG1 (UniProt Q99933) | inactive: -0.026 | inactive: -0.019 | inactive: 0.015 | inactive: -0.028 | inactive: -0.022 | inactive: 0.021 | inactive: -0.053 | inactive: 0.013 | inactive: -0.068 | inactive: -0.035 | inactive: 0.038 | inactive: 0.007 | inactive: 0.033 | inactive: -0.04 | inactive: -0.003 | inactive: 0.004 | inactive: 0.014 | inactive: -0.023 | inactive: 0.033 | inactive: -0.025
8 | BAD (UniProt Q92934) | inactive: -0.151 | inactive: -0.046 | inactive: 0.034 | inactive: 0.009 | inactive: 0.092 | inactive: -0.069 | inactive: 0.077 | inactive: 0.076 | inactive: -0.005 | inactive: -0.046 | inactive: -0.243 | inactive: 0.033 | inactive: 0.101 | inactive: -0.018 | inactive: -0.122 | inactive: 0.011 | inactive: -0.064 | inactive: -0.071 | inactive: 0.131 | inactive: -0.072
9 | BLOC1S5 (UniProt Q8TDH9) | inactive: 0.075 | inactive: 0.015 | inactive: 0.007 | inactive: 0.08 | inactive: 0.01 | inactive: 0.003 | inactive: 0.01 | inactive: 0.038 | inactive: -0.077 | inactive: 0.001 | inactive: 0.01 | inactive: 0.031 | inactive: -0.017 | inactive: -0.01 | inactive: -0.054 | inactive: -0.022 | inactive: 0.032 | inactive: -0.013 | inactive: -0.014 | inactive: -0.067
10 | BSDC1 (UniProt Q9NW68) | inactive: -0.142 | inactive: 0.011 | inactive: -0.014 | inactive: -0.019 | inactive: -0.003 | inactive: -0.018 | inactive: -0.006 | inactive: 0.009 | inactive: -0.031 | inactive: 0.017 | inactive: 0.024 | inactive: -0.046 | inactive: -0.084 | inactive: 0.003 | inactive: -0.036 | inactive: 0.002 | inactive: 0.055 | inactive: 0.033 | inactive: -0.048 | inactive: -0.044
11 | BCL2L2 isoform 2 (UniProt Q92843) | inactive: -0.018 | inactive: -0.058 | inactive: -0.114 | inactive: 0.017 | inactive: 0.132 | inactive: 0.096 | inactive: -0.128 | inactive: -0.098 | inactive: 0.012 | inactive: -0.114 | inactive: -0.059 | inactive: 0.072 | inactive: 0.117 | inactive: -0.005 | inactive: 0.041 | inactive: 0.038 | inactive: -0.032 | inactive: 0.088 | inactive: 0.057 | inactive: -0.213
12 | BANF1 (UniProt O75531) | inactive: -0.09 | inactive: -0.036 | inactive: -0.012 | inactive: 0.137 | inactive: 0.072 | inactive: 0.005 | inactive: 0.072 | inactive: 0.225 | inactive: 0.066 | inactive: -0.016 | inactive: -0.089 | inactive: 0.069 | inactive: 0.109 | inactive: -0.069 | inactive: -0.123 | inactive: -0.156 | inactive: 0.002 | inactive: 0.007 | inactive: -0.151 | inactive: 0.006
13 | BCAT2 (UniProt O15382) | inactive: -0.034 | inactive: -0.068 | inactive: 0.016 | inactive: -0.024 | inactive: 0.055 | inactive: -0.015 | inactive: -0.005 | inactive: 0.007 | inactive: 0.029 | inactive: 0.02 | inactive: 0 | inactive: -0.052 | inactive: -0.005 | inactive: 0.009 | inactive: 0.004 | inactive: -0.037 | inactive: 0.045 | inactive: 0.016 | inactive: -0.014 | inactive: 0
14 | BLVRB (UniProt P30043) | inactive: 0.014 | inactive: 0.05 | inactive: 0.021 | inactive: -0.109 | inactive: -0.064 | inactive: 0.029 | inactive: 0.032 | inactive: 0.074 | inactive: -0.021 | inactive: -0.097 | inactive: 0.069 | inactive: 0.006 | inactive: -0.116 | inactive: 0.018 | inactive: 0.058 | inactive: 0 | inactive: 0.058 | inactive: 0.01 | inactive: 0.021 | inactive: -0.035
15 | AZGP1 (UniProt P25311) | inactive: 0.361 | inactive: -0.299 | inactive: -0.068 | inactive: 0.304 | inactive: -0.315 | inactive: 0.606 | inactive: 0.489 | inactive: 0.279 | inactive: 0.078 | inactive: -0.115 | inactive: 0.77 | inactive: 0.265 | inactive: -0.088 | inactive: 0.355 | inactive: 0.487 | inactive: 0.168 | inactive: -0.482 | inactive: -0.34 | inactive: -0.09 | inactive: 1.45
16 | AURKA (UniProt O14965) | inactive: 0.103 | inactive: -0.113 | inactive: -0.001 | active: 0.699 | inactive: 0.365 | inactive: 0.47 | inactive: 0.073 | inactive: -0.016 | inactive: -0.054 | inactive: -0.078 | inactive: 0.077 | inactive: -0.02 | inactive: 0.059 | inactive: -0.033 | inactive: -0.072 | inactive: -0.06 | inactive: -0.036 | inactive: 0.015 | inactive: 0.105 | inactive: -0.328

Two entries drawn at random from the list so far, as already listed:
Row | Target | log2 fold change (bafetinib) | log2 fold change [1] | log2 fold change (nilotinib) | log2 fold change [2] | log2 fold change (dasatinib) | log2 fold change [3] | log2 fold change [4] | log2 fold change [5] | log2 fold change (tipifarnib) | log2 fold change (mubritinib) | log2 fold change [6] | log2 fold change [7] | log2 fold change [8] | log2 fold change [9] | log2 fold change (entinostat) | log2 fold change (vorinostat) | log2 fold change (citarinostat) | log2 fold change (silmitasertib) | log2 fold change [10] | log2 fold change [11]
13 | BCAT2 (UniProt O15382) | inactive: -0.034 | inactive: -0.068 | inactive: 0.016 | inactive: -0.024 | inactive: 0.055 | inactive: -0.015 | inactive: -0.005 | inactive: 0.007 | inactive: 0.029 | inactive: 0.02 | inactive: 0 | inactive: -0.052 | inactive: -0.005 | inactive: 0.009 | inactive: 0.004 | inactive: -0.037 | inactive: 0.045 | inactive: 0.016 | inactive: -0.014 | inactive: 0
16 | AURKA (UniProt O14965) | inactive: 0.103 | inactive: -0.113 | inactive: -0.001 | active: 0.699 | inactive: 0.365 | inactive: 0.47 | inactive: 0.073 | inactive: -0.016 | inactive: -0.054 | inactive: -0.078 | inactive: 0.077 | inactive: -0.02 | inactive: 0.059 | inactive: -0.033 | inactive: -0.072 | inactive: -0.06 | inactive: -0.036 | inactive: 0.015 | inactive: 0.105 | inactive: -0.328
